Laboratory results published in paper doi:10.64898/2025.12.19.694617.

The chains behind the UniProt entries cited, without tags or fusion partners.
UniProt Q9QYE3: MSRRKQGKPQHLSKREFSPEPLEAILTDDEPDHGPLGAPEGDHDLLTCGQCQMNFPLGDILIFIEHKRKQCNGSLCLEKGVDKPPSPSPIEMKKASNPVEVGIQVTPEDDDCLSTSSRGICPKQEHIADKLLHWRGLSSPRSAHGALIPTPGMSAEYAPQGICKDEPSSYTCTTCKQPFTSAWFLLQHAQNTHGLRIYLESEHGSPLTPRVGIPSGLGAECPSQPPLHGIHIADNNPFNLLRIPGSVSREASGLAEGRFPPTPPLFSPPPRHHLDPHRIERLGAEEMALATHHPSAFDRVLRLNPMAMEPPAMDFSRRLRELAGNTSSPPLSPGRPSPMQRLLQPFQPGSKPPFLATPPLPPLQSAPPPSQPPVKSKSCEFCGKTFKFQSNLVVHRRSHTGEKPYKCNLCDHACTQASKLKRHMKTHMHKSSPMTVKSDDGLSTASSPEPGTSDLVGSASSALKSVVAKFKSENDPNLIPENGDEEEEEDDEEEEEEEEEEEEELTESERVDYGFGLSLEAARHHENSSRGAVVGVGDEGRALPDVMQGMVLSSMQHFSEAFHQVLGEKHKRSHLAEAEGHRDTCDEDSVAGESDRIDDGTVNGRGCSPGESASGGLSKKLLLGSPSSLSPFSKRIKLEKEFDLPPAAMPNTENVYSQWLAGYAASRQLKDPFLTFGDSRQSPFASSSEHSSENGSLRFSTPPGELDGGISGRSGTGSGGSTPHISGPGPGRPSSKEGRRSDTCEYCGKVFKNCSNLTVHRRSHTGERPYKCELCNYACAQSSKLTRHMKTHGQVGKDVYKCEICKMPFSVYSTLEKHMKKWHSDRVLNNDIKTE
UniProt P97454: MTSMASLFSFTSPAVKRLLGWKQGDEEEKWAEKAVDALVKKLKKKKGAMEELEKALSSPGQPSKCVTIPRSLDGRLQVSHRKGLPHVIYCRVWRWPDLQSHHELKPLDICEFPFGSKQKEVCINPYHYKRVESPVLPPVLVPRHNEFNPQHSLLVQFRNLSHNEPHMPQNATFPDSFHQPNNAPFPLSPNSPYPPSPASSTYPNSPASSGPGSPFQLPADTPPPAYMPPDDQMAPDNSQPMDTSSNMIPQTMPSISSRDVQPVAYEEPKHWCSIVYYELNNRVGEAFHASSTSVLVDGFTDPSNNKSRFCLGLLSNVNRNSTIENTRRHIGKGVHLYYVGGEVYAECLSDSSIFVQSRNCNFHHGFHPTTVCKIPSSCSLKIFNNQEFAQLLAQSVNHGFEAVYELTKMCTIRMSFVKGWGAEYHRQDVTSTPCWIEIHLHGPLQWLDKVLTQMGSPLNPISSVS
UniProt Q8BUN5: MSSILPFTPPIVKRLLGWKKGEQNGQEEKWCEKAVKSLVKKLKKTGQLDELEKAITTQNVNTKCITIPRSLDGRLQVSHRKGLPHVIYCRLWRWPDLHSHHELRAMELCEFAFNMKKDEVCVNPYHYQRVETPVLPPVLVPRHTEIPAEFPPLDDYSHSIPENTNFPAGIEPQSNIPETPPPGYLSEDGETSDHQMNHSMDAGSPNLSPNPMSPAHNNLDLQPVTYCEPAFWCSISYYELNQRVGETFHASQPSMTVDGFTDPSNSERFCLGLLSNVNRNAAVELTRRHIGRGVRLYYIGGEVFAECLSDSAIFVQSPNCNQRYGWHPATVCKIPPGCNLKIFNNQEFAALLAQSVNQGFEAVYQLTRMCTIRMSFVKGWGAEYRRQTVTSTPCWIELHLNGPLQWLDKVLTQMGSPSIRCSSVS
UniProt Q62432: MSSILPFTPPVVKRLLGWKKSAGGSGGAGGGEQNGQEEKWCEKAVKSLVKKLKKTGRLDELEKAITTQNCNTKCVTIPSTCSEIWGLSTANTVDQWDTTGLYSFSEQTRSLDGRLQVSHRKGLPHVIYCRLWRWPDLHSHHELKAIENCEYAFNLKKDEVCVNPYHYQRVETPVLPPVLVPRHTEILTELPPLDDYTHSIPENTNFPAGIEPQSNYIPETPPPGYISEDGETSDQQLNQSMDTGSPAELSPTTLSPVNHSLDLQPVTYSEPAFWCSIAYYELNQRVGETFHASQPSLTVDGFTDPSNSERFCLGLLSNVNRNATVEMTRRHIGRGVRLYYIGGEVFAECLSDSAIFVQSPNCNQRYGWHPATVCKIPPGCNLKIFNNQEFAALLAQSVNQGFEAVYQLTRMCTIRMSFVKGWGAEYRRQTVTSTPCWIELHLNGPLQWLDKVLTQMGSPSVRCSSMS
UniProt P40201: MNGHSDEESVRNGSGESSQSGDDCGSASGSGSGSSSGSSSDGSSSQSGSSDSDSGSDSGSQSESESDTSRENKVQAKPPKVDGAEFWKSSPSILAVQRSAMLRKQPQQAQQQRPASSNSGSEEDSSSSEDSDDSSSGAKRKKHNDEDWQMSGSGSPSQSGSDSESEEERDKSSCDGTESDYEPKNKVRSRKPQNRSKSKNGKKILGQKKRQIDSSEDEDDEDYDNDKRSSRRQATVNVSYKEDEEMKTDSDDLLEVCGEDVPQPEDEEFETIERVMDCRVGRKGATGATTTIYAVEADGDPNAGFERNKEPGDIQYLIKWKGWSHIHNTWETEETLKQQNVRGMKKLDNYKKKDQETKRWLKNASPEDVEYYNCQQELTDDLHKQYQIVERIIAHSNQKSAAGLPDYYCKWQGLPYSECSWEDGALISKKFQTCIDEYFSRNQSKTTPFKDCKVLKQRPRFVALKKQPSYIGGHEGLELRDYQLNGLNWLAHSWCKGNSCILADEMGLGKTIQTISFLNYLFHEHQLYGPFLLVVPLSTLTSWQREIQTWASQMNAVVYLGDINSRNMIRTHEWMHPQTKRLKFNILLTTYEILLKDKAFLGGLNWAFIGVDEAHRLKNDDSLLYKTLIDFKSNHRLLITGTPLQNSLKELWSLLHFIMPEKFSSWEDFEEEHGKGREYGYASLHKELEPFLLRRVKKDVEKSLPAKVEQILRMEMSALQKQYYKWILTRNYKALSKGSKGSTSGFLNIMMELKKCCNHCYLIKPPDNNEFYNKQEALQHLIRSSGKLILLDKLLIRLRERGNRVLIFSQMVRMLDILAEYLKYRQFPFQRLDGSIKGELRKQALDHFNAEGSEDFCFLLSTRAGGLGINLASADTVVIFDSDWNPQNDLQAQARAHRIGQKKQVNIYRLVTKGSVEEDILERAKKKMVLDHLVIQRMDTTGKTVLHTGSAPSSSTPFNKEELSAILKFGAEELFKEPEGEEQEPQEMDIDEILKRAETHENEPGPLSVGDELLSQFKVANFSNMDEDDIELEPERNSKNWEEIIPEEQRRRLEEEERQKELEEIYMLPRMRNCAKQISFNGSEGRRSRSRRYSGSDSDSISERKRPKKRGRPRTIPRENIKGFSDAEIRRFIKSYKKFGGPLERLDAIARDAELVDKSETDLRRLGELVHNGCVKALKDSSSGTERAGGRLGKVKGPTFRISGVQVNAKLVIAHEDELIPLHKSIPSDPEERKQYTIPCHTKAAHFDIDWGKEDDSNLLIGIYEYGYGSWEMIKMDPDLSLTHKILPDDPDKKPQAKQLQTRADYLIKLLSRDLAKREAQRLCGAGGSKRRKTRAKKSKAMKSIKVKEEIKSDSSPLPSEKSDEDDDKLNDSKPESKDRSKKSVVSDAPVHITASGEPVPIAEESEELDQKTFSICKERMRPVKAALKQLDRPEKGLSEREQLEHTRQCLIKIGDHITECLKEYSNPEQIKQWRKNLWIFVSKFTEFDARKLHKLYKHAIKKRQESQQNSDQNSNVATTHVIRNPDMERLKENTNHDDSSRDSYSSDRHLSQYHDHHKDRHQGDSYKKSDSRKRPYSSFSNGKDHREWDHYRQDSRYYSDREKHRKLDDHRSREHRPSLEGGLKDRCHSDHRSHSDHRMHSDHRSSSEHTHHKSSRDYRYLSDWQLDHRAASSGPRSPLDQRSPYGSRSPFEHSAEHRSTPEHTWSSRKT

Each substance was assayed against Bcl11a-streptag (mouse) (UniProt Q9QYE3) (assay: affinity purification with mass spectrometry).

binding, binds:
Smad5 (from UniProt P97454 1-465)
Smad3 (from UniProt Q8BUN5 1-425)
Smad2 (from UniProt Q62432 1-467)
Chd1 (from UniProt P40201 1-1711)

No constants are given. Whether binding was seen depends on the method and setting. Binding seen in cells or lysates may run through a third protein. A yes stands for co-enrichment or nearness to the bait. Other partners may have been found.
